Taken from: PubChem BioAssay AID1259405 (NCATS, 2018)

Aim: 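Mouse-designed siRNAs used to find CHO productivity engineering targets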 (primary screen)
System: Chinese hamster CHO-K1 ovary cells with stable secreted eGFP expression
Reagents: single siRNA against mouse genes, 0.8 pmol siRNA per well (2 µl of 400 nM stock)
Time to read-out: 3 days
Detection: 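Percent of the per-plate non-targeting control median for intracellular GFP per well by laser scanning cytometry and for cell viability by ATP luminescence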
Direction: GFP, % of control: higher = more GFP per well, higher productivity; viability (ATP), % of control: higher = more viable cells (more ATP)
Rule for the call: 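Called active when intracellular GFP, relative to negative control, is at or above 120%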
Here is an unselected part of about 50,000 reagents. About 4,000 of them (8%) were called active. 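Mouse siRNA library applied to hamster cells; one well for each siRNA.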 Reagents against one gene are numbered here.

With Tmem109 (transmembrane protein 109) #1, how do the results read?
GFP, % of control: 67.3; viability (ATP), % of control: 62.3; Outcome: inactive

With Tmem109 (transmembrane protein 109) #2, how do the results read?
GFP, % of control: 103; viability (ATP), % of control: 79.6; Outcome: inactive

For Tmem109 (transmembrane protein 109) #3, what does the deposit list?
GFP, % of control: 96.9; viability (ATP), % of control: 77.3; Outcome: inactive

For Bdkrb2 (bradykinin receptor, beta 2) #1, how do the results read?
GFP, % of control: 143; viability (ATP), % of control: 101; Outcome: active

For Bdkrb2 (bradykinin receptor, beta 2) #2, what was measured?
GFP, % of control: 110; viability (ATP), % of control: 78.9; Outcome: inactive

For Bdkrb2 (bradykinin receptor, beta 2) #3, what was measured?
GFP, % of control: 82.7; viability (ATP), % of control: 58.5; Outcome: inactive

What is on record for Vmn1r85 (vomeronasal 1 receptor 85) #1?
GFP, % of control: 64.5; viability (ATP), % of control: 48.3; Outcome: inactive

What did the screen give for Vmn1r85 (vomeronasal 1 receptor 85) #2?
GFP, % of control: 54.5; viability (ATP), % of control: 60.5; Outcome: inactive

How did the screen score Vmn1r85 (vomeronasal 1 receptor 85) #3?
GFP, % of control: 47; viability (ATP), % of control: 79.6; Outcome: inactive

How did the screen score Or13p3 (olfactory receptor family 13 subfamily P member 3) #1?
GFP, % of control: 69.5; viability (ATP), % of control: 58.9; Outcome: inactive

How did the screen score Or13p3 (olfactory receptor family 13 subfamily P member 3) #2?
GFP, % of control: 44.4; viability (ATP), % of control: 62; Outcome: inactive

What did the screen give for Or13p3 (olfactory receptor family 13 subfamily P member 3) #3?
GFP, % of control: 192; viability (ATP), % of control: 54; Outcome: active

With Fancm (Fanconi anemia, complementation group M) #1, how do the results read?
GFP, % of control: 72.7; viability (ATP), % of control: 103; Outcome: inactive

How did the screen score Fancm (Fanconi anemia, complementation group M) #2?
GFP, % of control: 90.6; viability (ATP), % of control: 84.1; Outcome: inactive

What is on record for Fancm (Fanconi anemia, complementation group M) #3?
GFP, % of control: 132; viability (ATP), % of control: 73.7; Outcome: active

Which result is listed for Copb1 (coatomer protein complex, subunit beta 1) #1?
GFP, % of control: 87.3; viability (ATP), % of control: 107; Outcome: inactive

How did the screen score Copb1 (coatomer protein complex, subunit beta 1) #2?
GFP, % of control: 60.2; viability (ATP), % of control: 69.6; Outcome: inactive

What is on record for Or1j4 (olfactory receptor family 1 subfamily J member 4) #1?
GFP, % of control: 92.7; viability (ATP), % of control: 73.7; Outcome: inactive

With Or1j4 (olfactory receptor family 1 subfamily J member 4) #2, what does the deposit list?
GFP, % of control: 110; viability (ATP), % of control: 89.9; Outcome: inactive

How did the screen score Or1j4 (olfactory receptor family 1 subfamily J member 4) #3?
GFP, % of control: 99.6; viability (ATP), % of control: 122; Outcome: inactive

Which result is listed for Smarcb1 (SWI/SNF related BAF chromatin remodeling complex subunit B1) #1?
GFP, % of control: 52.1; viability (ATP), % of control: 72.6; Outcome: inactive

For Smarcb1 (SWI/SNF related BAF chromatin remodeling complex subunit B1) #2, what does the deposit list?
GFP, % of control: 64.1; viability (ATP), % of control: 87.4; Outcome: inactive

What did the screen give for Smarcb1 (SWI/SNF related BAF chromatin remodeling complex subunit B1) #3?
GFP, % of control: 62.9; viability (ATP), % of control: 60.8; Outcome: inactive

Ordered by “viability (ATP), % of control” (descending): 6 of the entries above.
Or1j4 (olfactory receptor family 1 subfamily J member 4) #3 | GFP, % of control: 99.6; viability (ATP), % of control: 122; Outcome: inactive
Copb1 (coatomer protein complex, subunit beta 1) #1 | GFP, % of control: 87.3; viability (ATP), % of control: 107; Outcome: inactive
Or1j4 (olfactory receptor family 1 subfamily J member 4) #2 | GFP, % of control: 110; viability (ATP), % of control: 89.9; Outcome: inactive
Fancm (Fanconi anemia, complementation group M) #3 | GFP, % of control: 132; viability (ATP), % of control: 73.7; Outcome: active
Or1j4 (olfactory receptor family 1 subfamily J member 4) #1 | GFP, % of control: 92.7; viability (ATP), % of control: 73.7; Outcome: inactive
Copb1 (coatomer protein complex, subunit beta 1) #2 | GFP, % of control: 60.2; viability (ATP), % of control: 69.6; Outcome: inactive

Additional reagents follow.
How did the screen score Map2k2 (mitogen-activated protein kinase kinase 2)?
GFP, % of control: 96.4; viability (ATP), % of control: 83.9; Outcome: inactive

How did the screen score Shcbp1 (Shc SH2-domain binding protein 1) #1?
GFP, % of control: 64.6; viability (ATP), % of control: 56.5; Outcome: inactive

With Shcbp1 (Shc SH2-domain binding protein 1) #2, how do the results read?
GFP, % of control: 24; viability (ATP), % of control: 38.7; Outcome: inactive

How did the screen score Shcbp1 (Shc SH2-domain binding protein 1) #3?
GFP, % of control: 86.8; viability (ATP), % of control: 81.9; Outcome: inactive

Which result is listed for S100a5 (S100 calcium binding protein A5) #1?
GFP, % of control: 98.3; viability (ATP), % of control: 113; Outcome: inactive

For S100a5 (S100 calcium binding protein A5) #2, what was measured?
GFP, % of control: 78; viability (ATP), % of control: 81.9; Outcome: inactive

With Rnf150 (ring finger protein 150) #1, what does the deposit list?
GFP, % of control: 99; viability (ATP), % of control: 97.1; Outcome: inactive

What is on record for Rnf150 (ring finger protein 150) #2?
GFP, % of control: 33.2; viability (ATP), % of control: 47.6; Outcome: inactive

How did the screen score Rnf150 (ring finger protein 150) #3?
GFP, % of control: 44; viability (ATP), % of control: 42.1; Outcome: inactive

For Lgi4 (leucine-rich repeat LGI family, member 4) #1, how do the results read?
GFP, % of control: 130; viability (ATP), % of control: 92.4; Outcome: active

For Lgi4 (leucine-rich repeat LGI family, member 4) #2, what does the deposit list?
GFP, % of control: 88.2; viability (ATP), % of control: 78.7; Outcome: inactive

For Lgi4 (leucine-rich repeat LGI family, member 4) #3, what was measured?
GFP, % of control: 61.7; viability (ATP), % of control: 53.1; Outcome: inactive

What did the screen give for Atg10 (autophagy related 10) #1?
GFP, % of control: 34; viability (ATP), % of control: 43; Outcome: inactive

What did the screen give for Atg10 (autophagy related 10) #2?
GFP, % of control: 71.9; viability (ATP), % of control: 74.8; Outcome: inactive

How did the screen score Atg10 (autophagy related 10) #3?
GFP, % of control: 75.4; viability (ATP), % of control: 37.5; Outcome: inactive

For Add1 (adducin 1) #1, what does the deposit list?
GFP, % of control: 64.9; viability (ATP), % of control: 75.5; Outcome: inactive

What is on record for Add1 (adducin 1) #2?
GFP, % of control: 68.3; viability (ATP), % of control: 73.4; Outcome: inactive

What did the screen give for Add1 (adducin 1) #3?
GFP, % of control: 68.4; viability (ATP), % of control: 88.9; Outcome: inactive
